Reference: PubChem BioAssay AID504834 (National Center for Advancing Translational Sciences (NCATS), 2011)
Among all 320,000 compounds or so, about 22,000 (6.9%) were called active. Inconclusive results, whose numbers are uncertain, are shown with a selection of clear calls. Calls come from the whole dose curve; as a rule, active = well fitted inhibition curve with a large enough effect; inconclusive = small, poorly fitted or top-dose-only effect, or another doubt; inactive = no such curve, though single readings can be large or run the other way. A potency beside an inconclusive call is a rough fit, not a confirmed value.

Assay: Primary qHTS for delayed death inhibitors of the malarial parasite plastid, 96 hour incubation
Conditions: P. falciparum luciferase reporter growth; series mostly up to 28.7 µM
In short: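 Compounds incubated with erythrocytes infected by luciferase-expressing P. falciparum (2% hematocrit, 0.05% parasitemia final) for 96 hours, 37 C in 5% CO2. Growth inhibition scored as decreased luciferase luminescence.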
Potency is the fitted concentration of half-maximal effect.

Compound	Potency
O=C1/C(=C/c2ccccc2Cl)N2CCC1CC2	inactive
O=C(c1cccs1)N1CCN(C(=O)C(c2ccccc2)c2ccccc2)CC1	inconclusive: 13.1 µM [inhibitor, single point]
Cn1c(=O)nc2n(Cc3ccccc3)c3ccccc3cc-2c1=O	inconclusive: 18.5 µM [inhibitor, single point]
C/C(CC(=O)Nc1cc(Cl)ccc1Cl)=N\NC(N)=S	inconclusive: 1.85 µM [inhibitor, partial curve, poor fit]
O=C(NCc1ccc(F)cc1)c1ccccc1OCc1ccccc1	inconclusive: 4.15 µM [inhibitor, partial curve]
CCC(OC(=O)c1nsc(Cl)c1Cl)C(=O)NC(C)(C)CC (stereo unspecified)	inactive
COc1ccc(COC(=O)C2=C(C)NC(=O)NC2c2ccc(O)c(OC)c2)cc1 (stereo unspecified)	active: 10.4 µM
CCN1C(=O)/C(=C\N2CCN(c3cccc(Cl)c3)CC2)SC1=S	inactive
S=C(Nc1cccc(Cl)c1Cl)N1CCCC1	inconclusive: 18.5 µM [inhibitor, single point]
O=C(O)c1cncc(C#CCC2CCCCC2)c1	inactive
Cc1cccc(NC(=O)CCS(=O)(=O)c2ccccc2)c1	inactive
CCCOC(=O)Nc1sc2c(c1C(N)=O)CCCC2	inconclusive: 0.928 µM [inhibitor, partial curve, poor fit]
COC(=O)C(Cc1ccccc1)NC(=O)CNC(=O)c1ccc(Br)o1 (stereo unspecified)	inconclusive: 9.28 µM [inhibitor, single point]
Cc1nc(SCC(=O)Nc2ccccc2Cl)oc1C	inactive
CC(C)(C)n1nc2c(c1NC(=O)c1cccc(C(F)(F)F)c1)CS(=O)C2 (stereo unspecified)	inconclusive: 3.29 µM [inhibitor, partial curve, poor fit]
Cc1cccn2cc(CSc3nnc(Nc4ccc(C(C)C)cc4)s3)nc12	inconclusive: 4.15 µM [inhibitor, partial curve, poor fit]
Cc1cccc(OCc2nnc(SCC(=O)Nc3cccc(C(=O)N4CCOCC4)c3)n2C)c1C	inconclusive: 18.5 µM [inhibitor, single point]
CCOC(=O)C1(CCc2ccccc2)CCN(C(=O)c2ccoc2)CC1	inconclusive: 18.5 µM [inhibitor, single point]
COc1cccc(NC(=O)Cn2c(CCC(=O)O)ccc2-c2ccc(Cl)cc2)c1	inconclusive: 0.0738 µM [inhibitor, full curve, poor fit]
O=C(NCCN1CCOCC1)c1ccc(Cl)c(S(=O)(=O)N2CCCCC2)c1	inconclusive: 9.28 µM [inhibitor, single point]
Clc1ccc(CCC(Cn2ccnc2)Sc2c(Cl)cccc2Cl)cc1 (stereo unspecified)	active: 0.928 µM
Cc1nc2ccccc2c(=O)n1NC(=O)c1ccc(Cl)cc1	inconclusive: 5.22 µM [inhibitor, partial curve]
CC(=O)SC(C)CC(=O)Nc1ccccc1 (stereo unspecified)	inactive

Ordered by formula weight (high to low): part of the list above
Compound	Potency
COc1ccc(COC(=O)C2=C(C)NC(=O)NC2c2ccc(O)c(OC)c2)cc1 (stereo unspecified)	active: 10.4 µM
CCN1C(=O)/C(=C\N2CCN(c3cccc(Cl)c3)CC2)SC1=S	inactive
O=C1/C(=C/c2ccccc2Cl)N2CCC1CC2	inactive

(continued)

Compound	Potency
O=c1c(Cc2ccccc2O)c(O)nc2n1CCCS2	inconclusive: 18.5 µM [inhibitor, single point]
Cc1ccc(NC(=O)CN2C(=O)NC(Cc3c[nH]c4ccccc34)C2=O)cc1S(=O)(=O)N1CCCCC1 (stereo unspecified)	inconclusive: 9.28 µM [inhibitor, single point]
Cc1cncn1CCc1nc2c3ccccc3nc(SCC(=O)Nc3cccc(Cl)c3)n2n1	inactive
Cc1nn(CC(=O)NCc2ccccc2Cl)c(C)c1[N+](=O)[O-]	inconclusive: 3.7 µM [inhibitor, single point]
CC(=O)OC(c1nc2ccccc2c(=O)n1C1CC2(OC1=O)c1ccccc1N1C(=O)C(C)(C)N(O)C12)C(C)C (stereo unspecified)	active: 10.4 µM
CCOC(=O)C1CCCN(C(=O)Cn2nc(CC)n3c(cc4sccc43)c2=O)C1 (stereo unspecified)	inconclusive: 0.165 µM [inhibitor, single point]
COc1cc(C2Nc3ccc4ccccc4c3C3=C2C(=O)CC(C)(C)C3)ccc1OCC(=O)O (stereo unspecified)	active: 0.928 µM
C[C@@]12C(=O)N(Cc3ccccc3)CC(=O)N1[C@H]1c3cc(Cl)ccc3OC[C@@H]1[C@@H]2c1ccccc1	inconclusive: 3.7 µM [inhibitor, full curve]
Cc1ccc(S(=O)(=O)NC2CCCC2)cc1C	inactive
Cc1ccc(NC(=O)Nc2nnc(-c3ccccc3F)s2)cc1	inactive
CCC(c1nnnn1Cc1ccccc1)N(Cc1ccco1)Cc1cc2cc(OC)ccc2[nH]c1=O (stereo unspecified)	inactive
CCc1nn(C)c(-c2n[nH]c(=S)n2N)c1Cl	inactive
Cc1nc2sc(C(c3cccc(F)c3)N3CCOCC3)c(O)n2n1 (stereo unspecified)	inconclusive: 0.0033 µM [inhibitor, full curve, poor fit]
N#CCn1cc(/C=N/NC(=O)c2cc3c(ccc4ccccc43)o2)c2ccccc21	active: 11.7 µM
CS(=O)(=O)Nc1ccc(C2=NN(C(=O)c3ccco3)C(c3ccccc3)C2)cc1 (stereo unspecified)	inconclusive: 7.38 µM [inhibitor, partial curve]
Cc1cc(C)c(S(=O)(=O)c2ccc(C(C)(C)C)cc2)c(Cl)n1	inconclusive: 3.7 µM [inhibitor, full curve]
COc1cccc(NC(=O)CN(C)C(=O)/C=C/c2cn(-c3ccccc3)nc2-c2cccs2)c1	inactive
O=C(O)c1cc(-c2ccc3ccccc3c2)nc2ccc(F)cc12	inconclusive: 1.04 µM [inhibitor, full curve, poor fit]
CCOc1ccccc1N(C(C)=O)S(=O)(=O)c1ccc(Cl)cc1	inactive
COc1ccc([C@@H]2C[C@@H](c3ccccc3)Oc3cc(OC)c(OC)c(OC)c32)cc1	inconclusive: 9.28 µM [inhibitor, partial curve]
COc1c2c(nc3occc13)C(CCC(C)(C)O)(OC)C(O)CC2 (stereo unspecified)	inconclusive: 4.65 µM [inhibitor, partial curve, poor fit]
NC(=O)N=Nc1c(O)n(Cc2ccccc2)c2ccc(Br)cc12	inconclusive: 18.5 µM [inhibitor, single point]
O=C(CCc1nnc(CCCCc2ccccc2)o1)N(CCO)Cc1ccccc1	inconclusive: 0.522 µM [inhibitor, partial curve, poor fit]
